{
  "sequences": {"note": "Protein sequences, listed by entry. Tags and fused reporters are not part of them.", "UniProt P53350, whole entry, looked up": "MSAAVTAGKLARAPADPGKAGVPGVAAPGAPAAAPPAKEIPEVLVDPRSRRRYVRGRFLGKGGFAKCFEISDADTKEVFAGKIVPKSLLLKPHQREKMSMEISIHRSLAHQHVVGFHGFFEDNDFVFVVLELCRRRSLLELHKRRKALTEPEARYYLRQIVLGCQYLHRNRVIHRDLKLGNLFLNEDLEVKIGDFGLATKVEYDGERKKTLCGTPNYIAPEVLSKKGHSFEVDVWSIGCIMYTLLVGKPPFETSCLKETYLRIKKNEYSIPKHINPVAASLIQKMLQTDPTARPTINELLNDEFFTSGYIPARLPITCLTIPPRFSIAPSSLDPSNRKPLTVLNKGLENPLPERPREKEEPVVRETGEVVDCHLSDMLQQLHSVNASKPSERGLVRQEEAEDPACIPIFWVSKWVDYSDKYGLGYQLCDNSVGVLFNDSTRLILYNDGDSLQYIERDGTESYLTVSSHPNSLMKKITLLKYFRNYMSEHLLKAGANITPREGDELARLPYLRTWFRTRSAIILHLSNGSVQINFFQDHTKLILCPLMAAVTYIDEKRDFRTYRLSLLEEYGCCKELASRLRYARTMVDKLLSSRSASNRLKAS"},
  "source": "PubChem BioAssay AID720504",
  "about": "(National Center for Advancing Translational Sciences (NCATS), 2013)",
  "note": "Out of some 360,000 compounds screened, about 10,000 (2.8%) were called active. The inconclusive results got no clear call from the source; some entries with a clear call stand among them for comparison. Calls come from the whole dose curve; as a rule, active = well fitted inhibition curve with a large enough effect; inconclusive = small, poorly fitted or top-dose-only effect; inactive = flat fitted curve, though single readings scatter. A potency beside an inconclusive call is a rough fit, not a confirmed value.",
  "data": [
    {"target": "Serine/threonine-protein kinase PLK1 (Homo sapiens) (UniProt P53350)", "experiment": "qHTS for Inhibitors of PLK1-PDB (polo-like kinase 1 - polo-box domain): Primary Screen; note: nearly all actives have a fitted effect of over 65% in size; note: potency is the fitted concentration of half-maximal effect; for max response, negative = inhibition: series mostly up to about 57 µM; % is set by controls: 0 for no effect and ±100 for the full control effect", "conditions": "Plk1 PBD binding of FITC phosphopeptide, fluorescence polarization", "values": [
      {"compound": "O=C(CN1C(=O)C2C3C=CC(C3)C2C1=O)OCC(=O)c1ccc(Cl)c([N+](=O)[O-])c1", "note": "(configuration not stated)", "max response, negative = inhibition": "inactive: -22.2%"},
      {"compound": "COC(=O)C1=C(C)Nc2ccc(C)cc2S1", "Potency": "inconclusive: 23.8 µM [inhibitor, partial curve]"},
      {"compound": "NS(=O)(=O)c1ccc(CCNC(=O)CSc2ccccc2)cc1", "Potency": "inconclusive: 26.7 µM [inhibitor, partial curve]"},
      {"compound": "c1ccc2c(Nc3ccc4c(c3)OCCO4)c3c(nc2c1)CCC3", "Potency": "inconclusive: 29.9 µM [inhibitor, partial curve]"},
      {"compound": "O=C(CNC(=O)c1nc[nH]c1C(=O)N1CCN(c2ccccc2)CC1)OCc1ccccc1", "max response, negative = inhibition": "inactive: -14.8%"},
      {"compound": "O=C1C2CSCN2C(=O)CN1CCCN1CCN(C(c2ccccc2)c2ccccc2)CC1", "note": "(configuration not stated)", "Potency": "inconclusive: 26.7 µM [inhibitor, partial curve]"},
      {"compound": "COc1ccc(C2(C(F)(F)F)NC(=O)N(C)C(=O)N2C)cc1", "note": "(configuration not stated)", "Potency": "inconclusive: 37.7 µM [inhibitor, single point]"},
      {"compound": "Cc1c(Cl)cccc1NS(=O)(=O)c1ccccc1", "Potency": "inconclusive: 23.8 µM [inhibitor, partial curve]"},
      {"compound": "CCCCNC(=O)C1C(c2ccc(OC)cc2)=Nc2ccccc2N1C(=O)c1cccnc1", "note": "(configuration not stated)", "max response, negative = inhibition": "inactive: -7.19%"},
      {"compound": "CC(C)N=C1NN=C(c2cccs2)C(CC(=O)O)S1", "note": "(configuration not stated)", "Potency": "inconclusive: 21.2 µM [inhibitor, partial curve]"},
      {"compound": "Cc1nnc(SC/C=C/c2ccccc2)n(N)c1=O", "max response, negative = inhibition": "inactive: -1.7%"},
      {"compound": "O=C(NC1CCCCC1)C(c1ccccn1)N(C(=O)c1csnn1)C1CCCCC1", "note": "(configuration not stated)", "max response, negative = inhibition": "inconclusive: -32.8% [inhibitor]"},
      {"compound": "COc1cc(NC(=O)c2ccc(C)cc2)c(OC)cc1NC(=O)CN1CCOCC1", "max response, negative = inhibition": "inactive: 1.87%"},
      {"compound": "Cc1ccc(C(=O)Nc2cc(-c3ccn[nH]3)c(C)n(N)c2=O)cc1", "Potency": "inconclusive: 8.44 µM [inhibitor, single point]"},
      {"compound": "C=CCNC(=S)N/N=C/c1cn(C)c2ccccc12", "Potency": "inconclusive: 26.7 µM [inhibitor, partial curve]"},
      {"compound": "CCN1C(=O)[C@H]2[C@@H](c3ccc(-c4ccc(C(C)=O)cc4)cc3)N3CCC[C@@]3(C(=O)OC)[C@H]2C1=O", "max response, negative = inhibition": "inactive: 0.786%"},
      {"compound": "CCOC(=O)CNC(=O)c1ccc(SCC)cc1", "max response, negative = inhibition": "inconclusive: -30.6% [inhibitor]"},
      {"compound": "C(=C\\c1ccccn1)/c1ccccn1", "Potency": "inconclusive: 26.7 µM [inhibitor, single point]"},
      {"compound": "Cc1ccc(CNC(=S)Nc2cc(C(=O)O)ccc2C)cc1", "max response, negative = inhibition": "inactive: -18.8%"},
      {"compound": "CC(OC(=O)CCN=C1NS(=O)(=O)c2ccccc21)C(=O)N(C)c1ccccc1", "note": "(configuration not stated)", "max response, negative = inhibition": "inactive: -3.24%"},
      {"compound": "Cc1cc(-c2csc(N)n2)c(C)n1CCc1ccccc1", "Potency": "inconclusive: 23.8 µM [inhibitor, single point]"},
      {"compound": "C/C=C/c1ccc(OCCCNC(C)CC)c(OC)c1", "note": "(configuration not stated)", "Potency": "inconclusive: 26.7 µM [inhibitor, single point]"},
      {"compound": "CC(C)n1nnnc1SCC(=O)c1ccc2c(c1)OCCO2", "Potency": "active: 29.9 µM"},
      {"compound": "O=C1CSC(c2cn(-c3ccccc3)nc2-c2cc3ccccc3oc2=O)N1Cc1ccco1", "note": "(configuration not stated)", "Potency": "inconclusive: 75.2 µM [inhibitor, partial curve]"},
      {"compound": "Oc1ccccc1OCc1nc2ccccc2s1", "Potency": "inconclusive: 26.7 µM [inhibitor, partial curve]"},
      {"compound": "Cc1cc(C(F)F)n2nc(C(=O)Nc3sc4c(c3C#N)CCC(C)C4)nc2n1", "note": "(configuration not stated)", "Potency": "inconclusive: 26.7 µM [inhibitor, partial curve]"},
      {"compound": "Cc1ccc(OCC(=O)NCc2ccc3c(c2)OCO3)c([N+](=O)[O-])n1", "Potency": "inconclusive: 29.9 µM [inhibitor, partial curve]"},
      {"compound": "O=C(Nc1cccc(S(=O)(=O)Nc2ccc(Cl)cc2)c1)c1ccc(Cl)nc1", "max response, negative = inhibition": "inactive: -15.7%"},
      {"compound": "COCCN1C(=O)C(=O)/C(=C(/O)c2ccc(S(=O)(=O)N3CCOCC3)cc2)C1c1ccc(O)cc1", "note": "(configuration not stated)", "max response, negative = inhibition": "inactive: 5.11%"},
      {"compound": "Cc1ccc(N2C(=O)CC(Sc3ncn[nH]3)C2=O)cc1", "note": "(configuration not stated)", "Potency": "inconclusive: 33.6 µM [inhibitor, single point]"},
      {"compound": "Cn1c(COc2ccccc2)nnc1SCC(=O)Nc1nnc(C2CC2)s1", "Potency": "active: 29.9 µM"},
      {"compound": "CCOC(=O)c1c(N)sc(=S)c2c1CCC2", "max response, negative = inhibition": "inconclusive: -30.5% [inhibitor]"},
      {"compound": "O=[N+]([O-])c1ccc(N2CCN(c3cccc(Cl)c3)CC2)cn1", "max response, negative = inhibition": "inconclusive: -30.1% [inhibitor]"},
      {"compound": "O=C(COc1cccc2ccccc12)N1CCN(c2ccccc2)CC1", "max response, negative = inhibition": "inactive: -9.2%"},
      {"compound": "COc1cccc(CN2CC(C(=O)NCCOc3ccccc3F)CCC2=O)c1", "note": "(configuration not stated)", "Potency": "active: 33.6 µM"},
      {"compound": "COc1ccc(N(C(=O)c2ccncc2)S(=O)(=O)c2cccc([N+](=O)[O-])c2)cc1", "Potency": "inconclusive: 11.9 µM [inhibitor, partial curve]"},
      {"compound": "CCOC(=O)c1ccc(S(=O)(=O)N2CC(=O)Nc3ccccc32)cc1", "Potency": "inconclusive: 11.9 µM [inhibitor, partial curve]"},
      {"compound": "COCCC(=O)N1CCC(Oc2ccc(C(=O)NCCn3cccn3)cc2)CC1", "max response, negative = inhibition": "inactive: -0.487%"},
      {"compound": "Cc1ccc(NC(=O)CN(C)C(=O)c2cccc(-n3cccc3)c2)cc1", "Potency": "inconclusive: 18.9 µM [inhibitor, partial curve]"},
      {"compound": "Cn1nnc(NC(=S)NC(=O)c2ccc(-c3ccc(Br)cc3)o2)n1", "Potency": "inconclusive: 16.8 µM [inhibitor, partial curve]"},
      {"compound": "O=C(NC1CC1)C1CCN(S(=O)(=O)c2cc([N+](=O)[O-])ccc2Cl)CC1", "Potency": "inconclusive: 29.9 µM [inhibitor, single point]"},
      {"compound": "CCOC(=O)c1nn(-c2ccccc2)c(=O)c2c(N)scc12", "Potency": "active: 2.67 µM"},
      {"compound": "CCCCn1c(-c2ccco2)n[nH]c1=S", "max response, negative = inhibition": "inconclusive: -31.9% [inhibitor]"},
      {"compound": "CSc1nc(=NC(C)=O)ss1", "Potency": "active: 7.94 µM"},
      {"compound": "O=C(NNC(=S)Nc1cccc2ccccc12)c1cccc(Br)c1", "Potency": "inconclusive: 23.8 µM [inhibitor, partial curve]"},
      {"compound": "COc1ccc(NC(=O)C(CC(C)C)NC(=O)C2CCC(C)CC2)c(OC)c1", "note": "(configuration not stated)", "max response, negative = inhibition": "inconclusive: -17.8% [inhibitor]"},
      {"compound": "COc1ccc(N2CCN(C(=O)CSc3nc4cc(OC)c(OC)cc4cc3C#N)CC2)cc1", "Potency": "inconclusive: 29.9 µM [inhibitor, partial curve]"},
      {"compound": "O=C(N/N=C/c1c(O)ccc2ccccc12)c1ccc(Br)o1", "max response, negative = inhibition": "inactive: 1.69%"},
      {"compound": "O=C(NC1CCCCC1)N1CCc2ccccc21", "Potency": "inconclusive: 26.7 µM [inhibitor, partial curve]"},
      {"compound": "COc1ccc(-c2ccc(CN3C(C)C(=O)N(Cc4cn(CCC5OCCO5)nn4)CCS3(=O)=O)cc2)cc1OC", "note": "(configuration not stated)", "max response, negative = inhibition": "inactive: -12.8%"},
      {"compound": "Cc1cc(C)n2nc(C(=O)OCC(=O)NCc3ccc(Cl)cc3)nc2n1", "max response, negative = inhibition": "inactive: -6.51%"},
      {"compound": "CN1/C(=N\\O)c2cccc3cccc1c23", "Potency": "active: 26.7 µM"},
      {"compound": "CC1=N/C(=C\\c2ccc(OC(C)C)cc2)C(=O)N1c1ccc(C(=O)O)cc1", "Potency": "inconclusive: 26.7 µM [inhibitor, single point]"},
      {"compound": "O=C(Nc1ncc(S(=O)(=O)c2ccc([N+](=O)[O-])cc2)s1)c1ccccc1F", "Potency": "inconclusive: 29.9 µM [inhibitor, partial curve]"},
      {"compound": "COc1ccc(CSc2nnc3[nH]c(=O)cc(N)n23)cc1", "Potency": "inconclusive: 26.7 µM [inhibitor, partial curve]"},
      {"compound": "Cn1c(C(=O)N[C@@H](C(=O)O)c2ccccc2)cc2cc(F)ccc21", "max response, negative = inhibition": "inactive: -5.59%"},
      {"compound": "Cc1ccc(SC[C@H](Cc2ccccc2)N2CC[C@@H](C)CCC2=O)cc1", "max response, negative = inhibition": "inactive: -1.72%"},
      {"compound": "N#CC1=C(N)Oc2n[nH]c(-c3cccs3)c2C1c1cccnc1", "note": "(configuration not stated)", "max response, negative = inhibition": "inactive: -8.65%"},
      {"compound": "Cc1cn(C2OC(COC(=O)c3ccccc3)C(O)C2Cl)c(=O)[nH]c1=O", "note": "(configuration not stated)", "Potency": "inconclusive: 8.44 µM [inhibitor, single point]"},
      {"compound": "CN(Cc1ccco1)S(=O)(=O)c1nnc(NC(=O)c2cccc(Cl)c2)s1", "Potency": "inconclusive: 29.9 µM [inhibitor, single point]"},
      {"compound": "O=C(Nc1nc(-c2cccc([N+](=O)[O-])c2)cs1)c1cccc([N+](=O)[O-])c1C(=O)O", "Potency": "inconclusive: 18.9 µM [inhibitor, partial curve, poor fit]"},
      {"compound": "NS(=O)(=O)c1ccc(NC(=O)CSC2CCCCC2)cc1", "Potency": "active: 29.9 µM"},
      {"compound": "CC(=C/c1ccco1)/C=N/NC(=O)Cc1cccn1C", "max response, negative = inhibition": "inactive: -12.3%"},
      {"compound": "CCOC(=O)CCCc1sc(N)nc1-c1[nH]c(=O)[nH]c1C", "Potency": "inconclusive: 23.8 µM [inhibitor, partial curve]"},
      {"compound": "CC1=C(C)CS(=O)N(S(=O)(=O)c2ccc(Cl)cc2)C1", "note": "(configuration not stated)", "Potency": "active: 1.34 µM"},
      {"compound": "O=C(Nc1ccc(C(=O)N2CCN(c3ccccc3)CC2)cc1)C1=CSCCO1", "Potency": "inconclusive: 21.2 µM [inhibitor, single point]"},
      {"compound": "COc1ccc(OC2C(=O)N(Cc3ccc(F)cc3)C2c2cc(OC)c(OC)c(OC)c2)cc1", "note": "(configuration not stated)", "max response, negative = inhibition": "inactive: 0.24%"},
      {"compound": "O=C1CSC(=S)N1", "max response, negative = inhibition": "inactive: 1.48%"},
      {"compound": "CN(c1ccccc1)S(=O)(=O)c1ccc(C(=O)Nc2nnc(C3=COCCO3)o2)cc1", "Potency": "inconclusive: 33.6 µM [inhibitor, partial curve]"},
      {"compound": "CC(C)CNC(=O)C(=O)NCC1OCCCN1S(=O)(=O)c1ccc2c(c1)OCCO2", "note": "(configuration not stated)", "max response, negative = inhibition": "inactive: -1.16%"},
      {"compound": "O=C(Nc1ccc(Cl)cc1)Nc1cnccn1", "Potency": "active: 29.9 µM"},
      {"compound": "CCc1ccc(CNC(=O)CCCC(=O)n2nc(C)c3ccccc32)cc1", "Potency": "inconclusive: 33.6 µM [inhibitor, partial curve]"}
    ]}
  ]
}
